This note sets out measurements from article PMC10992996.

Protein sequences, listed by entry. Tags and fused reporters are not part of them. Residues count along the entry.
UniProt Q5IJ48, residues 29-1285: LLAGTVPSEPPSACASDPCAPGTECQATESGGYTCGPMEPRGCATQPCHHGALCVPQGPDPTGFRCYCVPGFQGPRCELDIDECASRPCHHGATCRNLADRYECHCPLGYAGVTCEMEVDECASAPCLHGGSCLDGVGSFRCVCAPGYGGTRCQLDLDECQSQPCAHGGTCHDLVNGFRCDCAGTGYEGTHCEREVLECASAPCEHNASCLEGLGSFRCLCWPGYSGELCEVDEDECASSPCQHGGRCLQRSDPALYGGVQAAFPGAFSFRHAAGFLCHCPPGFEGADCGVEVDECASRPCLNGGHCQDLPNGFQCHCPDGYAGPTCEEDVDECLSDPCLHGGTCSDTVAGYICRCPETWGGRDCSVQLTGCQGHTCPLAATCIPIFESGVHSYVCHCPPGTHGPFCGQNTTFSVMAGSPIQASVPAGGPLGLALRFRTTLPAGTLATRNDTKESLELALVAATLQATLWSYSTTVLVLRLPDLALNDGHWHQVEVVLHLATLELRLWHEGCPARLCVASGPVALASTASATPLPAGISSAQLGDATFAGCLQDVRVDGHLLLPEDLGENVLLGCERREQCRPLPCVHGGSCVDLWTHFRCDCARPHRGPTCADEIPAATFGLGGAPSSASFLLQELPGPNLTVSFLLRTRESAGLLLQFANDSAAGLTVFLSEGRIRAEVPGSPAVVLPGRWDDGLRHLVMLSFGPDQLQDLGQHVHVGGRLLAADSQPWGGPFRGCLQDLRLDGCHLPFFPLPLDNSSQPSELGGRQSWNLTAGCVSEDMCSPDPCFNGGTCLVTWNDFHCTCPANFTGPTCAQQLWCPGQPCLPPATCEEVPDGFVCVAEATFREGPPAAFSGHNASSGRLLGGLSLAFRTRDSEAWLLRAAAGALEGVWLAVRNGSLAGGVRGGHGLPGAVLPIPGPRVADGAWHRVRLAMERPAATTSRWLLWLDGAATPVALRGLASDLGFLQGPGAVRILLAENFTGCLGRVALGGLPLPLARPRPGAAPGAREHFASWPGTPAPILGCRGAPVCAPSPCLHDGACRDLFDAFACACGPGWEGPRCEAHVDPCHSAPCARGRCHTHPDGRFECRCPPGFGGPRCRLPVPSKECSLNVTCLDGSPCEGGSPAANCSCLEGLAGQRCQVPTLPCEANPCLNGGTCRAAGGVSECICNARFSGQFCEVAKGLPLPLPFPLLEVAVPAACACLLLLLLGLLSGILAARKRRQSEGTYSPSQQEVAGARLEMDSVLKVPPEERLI

Experiment [1] has as its target Human canonical CRB2 (Crumbs homolog 2) (human) (UniProt Q5IJ48). The experiment can be described thus: affinity purification with mass spectrometry; CRB2-FLAG (GFP-FLAG as control) from HEK293T lysate on FLAG beads, washed with 0.01% SDS in TBS, incubated with lysis buffer without porcine retina lysate, FLAG peptide elution, LC-MS/MS, N = 6; interactors derive from HEK293T cells.

The target is the same in experiment [2]. Description: affinity purification with mass spectrometry; CRB2-FLAG pull-down with LC-MS/MS as a2 and a3; the sentence does not tell whether the sample was with or without porcine retina lysate.

No constants are given. Whether binding was seen depends on the method and setting. In cells and extracts the contact can be indirect. A yes stands for co-enrichment or nearness to the bait. Other partners may have been found.

B1: LIN7C (protein, UniProt Q9NUP9 1-197)
chain: MAALGEPVRLERDICRAIELLEKLQRSGEVPPQKLQALQRVLQSEFCNAVREVYEHVYETVDISSSPEVRANATAKATVAAFAASEGHSHPRVVELPKTEEGLGFNIMGGKEQNSPIYISRIIPGGIADRHGGLKRGDQLLSVNGVSVEGEHHEKAVELLKAAQGKVKLVVRYTPKVLEEMESRFEKMRSAKRRQQT
On to B1, for which the binding result in experiment [1] is “binds”.

B2: ARL8A (protein, UniProt Q96BM9 1-186)
chain: MIALFNKLLDWFKALFWKEEMELTLVGLQYSGKTTFVNVIASGQFNEDMIPTVGFNMRKITKGNVTIKLWDIGGQPRFRSMWERYCRGVSAIVYMVDAADQEKIEASKNELHNLLDKPQLQGIPVLVLGNKRDLPGALDEKELIEKMNLSAIQDREICCYSISCKEKDNIDITLQWLIQHSKSRRS
On to B2, for which the binding entry in experiment [2] is listed as “binds”.
